According to PubChem BioAssay AID463205 (Broad Institute, 2010):
Among all 2,400 compounds or so, about 20 (0.8%) were called active.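 The calls were made as follows: active = AC50 no more than ten times the highest tested concentration, or full inhibition at every dose giving a flat fit (cut at about 30 µM in these data); inconclusive = flat fit with activity between 30% and 70%, or poor-quality invalid fit; inactive = AC50 more than ten times the top tested dose.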 This is one part of the list.

experiment: inhibitors of ADP-Glo detection reagents, dose response, artefact control for GSK-3a inhibitor project, biochemical, luminescence, cell-free, homogeneous (AID 463205); settings: 5 uM ADP;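 also: kinase-free counter-screen against the ADP-Glo detection reagents only; potency is for inhibitors that reduce the luminescence signal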

AC50, active:
Cc1occc1C(=O)N/N=C/c1ccc(N(C)C)cc1 28.1 µM

AC50, inactive:
CCOC(=O)c1cc(CC)sc1NC(=O)COC(=O)c1ccccn1 > 30 µM
COc1ccc2nc(NC(=O)C3CCCN3S(=O)(=O)c3ccc(C)cc3)sc2c1 (stereo not drawn) > 30 µM
Cc1nc(SCC(=O)NCC2CCCO2)c2c3c(sc2n1)CCCC3 (stereo not drawn) > 30 µM
COc1ccc(-c2ccccc2)c2oc(-c3ccco3)cc(=O)c12 > 30 µM
CC(C)=CCc1cc(-c2oc3cc(O)cc(O)c3c(=O)c2O)ccc1O > 30 µM
Cc1cccc2cc(C#N)c(NCCNC(=S)NCCCN3CCOCC3)nc12 > 30 µM
COc1cccc(/C=C2\SC(=O)NC2=O)c1OCc1ccc(C(=O)O)cc1 > 30 µM
CCOC(=O)c1c(NC(=O)C2CC2)sc(C)c1CC > 30 µM
NC(=O)NCC12CC3CC(CC(C3)C1)C2 > 30 µM
COc1cc(C2c3sc(=O)[nH]c3SC3C4CCC(C4)C23)ccc1O (stereo not drawn) > 30 µM
CCc1ccc(NC(=O)N[C@H](C(=O)O)C(C)CC)cc1 (stereo partly drawn) > 30 µM
CS(=O)(=O)N1CCN(c2ccnc3cc(Cl)ccc23)CC1 > 30 µM
O=C(CSc1nnc(-c2ccncc2)s1)Nc1ccccc1 > 30 µM
COc1ccc(NC(=O)CNc2cccc(S(=O)(=O)N3CCCCCC3)c2)c([N+](=O)[O-])c1 > 30 µM
CC(C)CCSc1cc(NCCO)c([N+](=O)[O-])c2nonc12 > 30 µM
Oc1ccc2c(c1)oc1cc(O)ccc12 > 30 µM
COc1cccc(/C=C2\Oc3ccc(O)cc3C2=O)c1O > 30 µM
COC(=O)CSc1nc(NCC(C)C)nc(N2CCOCC2)n1 > 30 µM
Cc1nc2sc(C(N)=O)c(N)c2c2c1CCCC2 > 30 µM
NCc1cccc(CNc2ccc([N+](=O)[O-])cc2C(N)=O)c1 > 30 µM
COC(=O)C1=C(C)N(C)C(=O)/C1=C\c1ccco1 > 30 µM
CCOCCCN(C(=O)c1snc(C(N)=O)c1N)C(C(=O)NC1CCCC1)c1ccc(O)cc1 (stereo not drawn) > 30 µM
CCCCCCCCCCOC(=O)Cn1c(COc2ccc(Cl)cc2)[n+](C)c2ccccc21 > 30 µM
Nn1cnnc1N/N=C\c1ccc(-c2ccccc2[N+](=O)[O-])o1 > 30 µM
Cc1sc2ncnc(SCC(=O)NCC3CCCO3)c2c1C (stereo not drawn) > 30 µM
Cc1ccc(C(=O)Nc2cccc(C(=O)NC3CCCCC3)c2)cc1 > 30 µM
CCOC(=O)c1nnn(-c2nonc2N)c1COc1ccc(F)cc1 > 30 µM
COc1ccc(-c2cc(=O)oc3cc(O)ccc23)cc1 > 30 µM
CC(C)(C)NC(=O)/C(=C\C=C\c1ccccc1)NC(=O)c1ccc([N+](=O)[O-])cc1 > 30 µM
Cc1nc2cc(-c3ccccc3)ccc2o1 > 30 µM
O=C(NCCCn1ccnc1)C(=O)NC1CCCCC1 > 30 µM
CCOC(=O)c1cnc2c(C)cc(Cl)cc2c1N1CCN(C)CC1 > 30 µM
CN(Cc1ccccc1)c1ncnc(N)c1[N+](=O)[O-] > 30 µM
Cc1ccc(-c2nnc3n2N=C(c2ccc(Br)cc2)CS3)cc1 > 30 µM
Cc1ccc(N2C(S)=C(C#N)C(=O)NC2c2ccco2)cc1 (stereo not drawn) > 30 µM
CCOC(=O)c1ccc(NC(=S)NCCc2ccccc2)cc1 > 30 µM
CCOC(=O)c1cc(-c2ccc(C)cc2)n(CCC(=O)NC(C)CC)c1C (stereo not drawn) > 30 µM
Cc1cc2nc(-c3ccc(=O)[nH]c3)n(Cc3ccccc3)c2cc1C > 30 µM
CCN1C(=O)/C(=C2\SC(=S)N(c3c(C)n(C)n(-c4ccccc4)c3=O)C2=O)c2ccccc21 > 30 µM
O=C(COC(=O)c1cccc(S(=O)(=O)N2CCOCC2)c1)Nc1ccc(Cl)cn1 > 30 µM
COc1cccc(CN2CCN(Cc3cc(OC)c(OC)cc3[N+](=O)[O-])CC2)c1 > 30 µM
COc1cc(SC)ccc1C(=O)Nc1nc(C)cc(C)n1 > 30 µM
CN(C)C=Nc1ncc2c3ccccc3n(CCN(C)C)c2c1C#N > 30 µM
Cc1c(CCOC(=O)c2ccc(Cl)cc2Cl)sc[n+]1CC(=O)c1ccccc1 > 30 µM
Cc1ccc(N=c2oc3cc(O)ccc3cc2C(N)=O)cc1 > 30 µM
COC(=O)CNc1nc(Cl)nc(NC2CCCCC2)n1 > 30 µM
CC(C)(C)NC(=O)CSc1ncccc1-c1nc2ccccc2[nH]1 > 30 µM
COc1ccc(-c2cn3cccnc3n2)cc1NC(=O)CC(C)C > 30 µM
O=C(Nc1cccc(-c2cnc3ccccc3n2)c1)c1ccncc1 > 30 µM
COc1ccc(C(=O)NCC(=O)N/N=C/C(C)=C/c2ccccc2)cc1OC > 30 µM
CCOC(=O)c1nnn(-c2nonc2N)c1COc1c(C=O)cccc1OC > 30 µM
O=C(c1ccco1)N(Cc1cccc([N+](=O)[O-])c1)c1ccc(Br)cc1 > 30 µM
COc1ccc(OC)c(C2CC(=O)N3CN(c4cccc(Cl)c4)CSC3=C2C#N)c1 (stereo not drawn) > 30 µM
COC(=O)c1c(NC(=O)COC(=O)c2ccccn2)sc(C)c1C > 30 µM
CNc1c(C(=O)O)ccc2c1C(=O)c1ccccc1C2=O > 30 µM
COc1ccc2nc(NC(=O)C3CCN(S(=O)(=O)c4cnc[nH]4)CC3)sc2c1 > 30 µM
COc1ccc(/C=N/NC(=O)c2nnn(-c3nonc3N)c2CN(C)c2ccccc2)cc1 > 30 µM
COc1cccc(Nc2nc(N)c([N+](=O)[O-])c(NCc3ccco3)n2)c1 > 30 µM
Cc1ccc(/C=C2\Oc3c(ccc(O)c3CN3CCN(CCO)CC3)C2=O)cc1 > 30 µM
COc1cc(-c2[nH]nc3c2C(c2ccoc2)C(C#N)=C(N)O3)cc(OC)c1OC (stereo not drawn) > 30 µM
COc1cc2ncc(S(=O)(=O)c3ccccc3)c(N3CCCC(C)C3)c2cc1OC (stereo not drawn) > 30 µM
CCN(CC)c1nc(N)c([N+](=O)[O-])c(NCCO)n1 > 30 µM
CCCCSc1nc(N)c(C#N)c(-c2cccs2)c1C#N > 30 µM
C/C(=N/NC(=O)c1ccc(C)s1)c1ccncc1 > 30 µM
O=c1[nH][nH]c(-c2ccccc2)c1C=Nc1ccc(OC(F)(F)F)cc1 > 30 µM
CCCCn1c(O)c(C=NCCCN(C)C)c(=O)[nH]c1=O > 30 µM
CCOC(=O)c1cc(C)sc1NC(=O)C1CCC1 > 30 µM
COc1ccc(C(=O)c2sc(Nc3ccccc3)c(C(=O)Nc3ccc(OC)c(OC)c3)c2N)cc1 > 30 µM
COc1ccccc1NC(=O)CSc1nnc(-c2ccncc2)o1 > 30 µM
CN(C)CCCNS(=O)(=O)c1ccc(NC2CCCCCC2)c([N+](=O)[O-])c1 > 30 µM
CN(C)C(=O)c1ccc(NC(=O)c2cc(-n3cnnc3)ccc2Cl)cc1 > 30 µM
N#CC1=C(SCc2ccccc2)NC(=O)CC1c1ccco1 (stereo not drawn) > 30 µM
O=C(Nc1ccc(Cl)c([N+](=O)[O-])c1)c1ccc(NCCCN2CCOCC2)c([N+](=O)[O-])c1 > 30 µM
O=C(CNC(=S)N(Cc1ccccc1)Cc1cccnc1)NC1CCCCC1 > 30 µM
S=C(Nc1cccc(Cl)c1)Nc1cccc2cnccc12 > 30 µM
CC(C)c1nnc(NC(=O)CCN2C(=O)c3ccccc3C2=O)s1 > 30 µM
COc1ccc(OC)c(C(=O)c2c(C)oc3cc(Br)c(O)c(CN(C)C)c23)c1 > 30 µM
Cc1oc2ccc(O)cc2c1C(=O)c1ccc(F)cc1 > 30 µM
Cc1ccc(/C=N/NC(=O)c2nnn(-c3nonc3N)c2CN(C)C)o1 > 30 µM
CCOC(=O)c1nnn(-c2nonc2N)c1CN(CC)c1ccccc1 > 30 µM
NC(=O)c1c(-c2cccs2)csc1N > 30 µM
Cc1ccc(O)c(C(=O)c2coc(=N)c(C(=O)NC(C)C)c2)c1 > 30 µM
COc1cc(/C=C/c2nc(N)nc(-c3ccccc3O)n2)cc(OC)c1OC > 30 µM
Cc1ccc(C2CC(=O)N3CN(c4ccc(Br)cc4)CSC3=C2C#N)o1 (stereo not drawn) > 30 µM
COc1cc(/C=N/n2nnnc2N)ccc1OCC#N > 30 µM
Clc1ccc(Nc2nc(NCCN3CCOCC3)nc(N3CCOCC3)n2)cc1 > 30 µM
CCCCOC(=O)n1ccc(C(=O)Nc2ccccc2OC)n1 > 30 µM
COc1ccc(NC(=O)c2nnn(Cc3cccc(F)c3)c2N)c(OC)c1 > 30 µM
O=C(Nc1ccccc1C(=O)NC1CCCCC1)c1ccco1 > 30 µM
c1ccc(N2CCN(c3nc4ccccc4n4cnnc34)CC2)cc1 > 30 µM
Cc1ccc(-c2nnc3n2N=C(c2ccccc2Br)CS3)cc1 > 30 µM
COc1ccc(-n2c(NC(=O)c3ccco3)c(C#N)c3nc4ccccc4nc32)cc1 > 30 µM

Five records picked at random from the list so far, as already listed:
AC50, inactive:
N#CC1=C(SCc2ccccc2)NC(=O)CC1c1ccco1 (stereo not drawn) > 30 µM
CC(C)=CCc1cc(-c2oc3cc(O)cc(O)c3c(=O)c2O)ccc1O > 30 µM
COc1ccc(NC(=O)CNc2cccc(S(=O)(=O)N3CCCCCC3)c2)c([N+](=O)[O-])c1 > 30 µM
CCOC(=O)c1ccc(NC(=S)NCCc2ccccc2)cc1 > 30 µM
NC(=O)NCC12CC3CC(CC(C3)C1)C2 > 30 µM

For convenience, part of the list above:
AC50, inactive:
Cc1ccc(N2C(S)=C(C#N)C(=O)NC2c2ccco2)cc1 (stereo not drawn) > 30 µM
CCOC(=O)c1ccc(NC(=S)NCCc2ccccc2)cc1 > 30 µM
